Laboratory results as given in article PMC12431657, “Discovery and mechanistic insights of dibenzoylmethane as a broad spectrum inhibitor of coronavirus” (PLOS Pathogens, 2025).
The campaign covered roughly 3,300 compounds. About 60 (2%) showed an effect of 50% or more. This is one part of the list.

system: HCoV-OC43; parameters: species or system RD; HTS, protection from HCoV-OC43 induced cell death, luminescent cell viability (CellCounting-Lite 2.0), inhibition rate; conditions: 24 h post infection, 1 h compound pre-incubation; 10 µM; inhibitor

| SMILES | OC43 Inhibition rate [%] |
| --- | --- |
| COc1cc(-c2cc(=O)c3c(O)cc(O)cc3o2)cc(OC)c1O [Tricin] | 1.1 |
| O=C(O)CNC(=O)Cc1ccccc1 [2-(2-Phenylacetamido)acetic acid] | -3.6 |
| O=C(O[C@H]1[C@H](Oc2c(-c3ccc(O)c(O)c3)oc3cc(O)cc(O)c3c2=O)O[C@H](CO)[C@H](O)[C@@H]1O)c1cc(O)c(O)c(O)c1 [2"-O-Galloylhyperin] | -1.9 |
| O=c1c(O[C@@H]2O[C@H](CO)[C@@H](O)[C@H](O)[C@H]2O)c(-c2ccc(O)cc2)oc2cc(O)cc(O)c12 [Astragalin] | -0.6 |
| COc1cc(-c2oc3cc(O)cc(O)c3c(=O)c2O[C@@H]2O[C@H](CO)[C@@H](O)[C@H](O)[C@H]2O[C@@H]2O[C@@H](C)[C@H](O)[C@@H](O)[C@H]2O)ccc1O [Isorhamnetin-3-O-neohespeidoside] | -0.1 |
| CCCCCC[C@@H](O)C/C=C\CCCCCCCC(=O)O [Ricinoleic acid] | -0.2 |
| C[C@@H]1O[C@@H](O[C@H]2[C@H](Oc3cc(O)c4c(=O)cc(-c5ccc(O)cc5)oc4c3)O[C@H](CO)[C@@H](O)[C@@H]2O)[C@H](O)[C@H](O)[C@H]1O [Rhoifolin] | 3 |
| CC(C)=CCc1c(O)ccc2ccc(=O)oc12 [Osthenol] | 6.4 |
| C[C@H](O)[C@@H](O)[C@@H](O)[C@H](O)CO [L-Fucitol] | 3.3 |
| CSSSC [Dimethyl trisulfide] | -0.3 |
| O=C(O)C(CO)c1ccccc1 (stereo not shown) [Tropic acid] | 0.5 |
| O=C(O)C(O)Cc1ccccc1 (racemic) [DL-3-Phenyllactic acid] | -0.2 |
| OC[C@H]1O[C@H](O)[C@H](O)[C@@H](O)[C@@H]1O [alpha-D-glucose] | -0.6 |
| CO[C@]1(CC[C@@H](C)CO[C@@H]2O[C@H](CO)[C@@H](O)[C@H](O)[C@H]2O)O[C@H]2C[C@H]3[C@@H]4CC=C5C[C@@H](O[C@@H]6O[C@H](CO)[C@@H](O[C@@H]7O[C@@H](C)[C@H](O)[C@@H](O)[C@H]7O)[C@H](O)[C@H]6O[C@@H]6O[C@@H](C)[C@H](O)[C@@H](O)[C@H]6O)CC[C@]5(C)[C@H]4CC[C@]3(C)[C@H]2[C@@H]1C [Methyl protodioscin] | -9 |
| CC(C)=CCNc1ncnc2nc[nH]c12 [6-(γ,γ-Dimethylallylamino)purine] | 1.4 |
| CC(=O)O[C@H]1CC/C(C)=C/CC/C(C)=C/C[C@]2(C(C)C)CC[C@@]1(C)O2 [Incensole Acetate] | 0 |

Not a retest: 3 of the compounds above.

| SMILES | OC43 Inhibition rate [%] |
| --- | --- |
| C[C@@H]1O[C@@H](O[C@H]2[C@H](Oc3cc(O)c4c(=O)cc(-c5ccc(O)cc5)oc4c3)O[C@H](CO)[C@@H](O)[C@@H]2O)[C@H](O)[C@H](O)[C@H]1O [Rhoifolin] | 3 |
| CC(C)=CCc1c(O)ccc2ccc(=O)oc12 [Osthenol] | 6.4 |
| C[C@H](O)[C@@H](O)[C@@H](O)[C@H](O)CO [L-Fucitol] | 3.3 |
